Measurements reported in PubChem BioAssay AID1259425 (University of Nebraska Medical Center, 2018).
Here is one part, drawn at random, of about 14,000 reagents. A reagent listed more than once was tested more than once; the source does not tell the runs apart. Not all columns of the deposit are shown. No sequences are given here. Not given: the time to read-out.

Test: 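Seek colon cancer weak points whose silencing resembles KSR1 loss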 (primary screen)
System: HCT116 human colon cancer cells
Reagents: siRNA pool against human genes, 50 nM siRNA
Read-out: 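After 50 nM siRNA pool, branched-DNA assay measures six marker transcripts per well, minus blank, normalised to the geometric mean of two housekeeping transcripts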
Reading the numbers: BNIP3L mRNA: higher = more BNIP3L transcript after knockdown

no.	Target gene	BNIP3L mRNA, set 1
1	SLC2A9	0.156
2	CYP2A13 (cytochrome P450 family 2 subfamily A member 13)	0.0918
3	ETFA (electron transfer flavoprotein subunit alpha)	0.0554
4	RHNO1 (RAD9-HUS1-RAD1 interacting nuclear orphan 1)	0.149
5	SRPK2 (SRSF protein kinase 2)	0.178
6	SNRNP200 (small nuclear ribonucleoprotein U5 subunit 200)	0.0864
7	OPN4 (opsin 4)	0.0601
8	TXLNA (taxilin alpha)	0.0572
9	IRAK1 (interleukin 1 receptor associated kinase 1)	0.0994
10	EDDM3A (epididymal protein 3A)	0.101
11	BPTF (bromodomain PHD finger transcription factor)	0.173
12	TXNIP (thioredoxin interacting protein)	0.128
13	MLST8 (MTOR associated protein MLST8)	0.205
14	SLC71A3P	0.17
15	RNF112 (ring finger protein 112)	0.235
16	TYROBP (transmembrane immune signaling adaptor TYROBP)	0.101
17	TYMP (thymidine phosphorylase)	0.0605
18	MPV17 (mitochondrial inner membrane protein MPV17)	0.142
19	ATP6AP2 (ATPase H+ transporting accessory protein 2)	0.0828
20	ZNF37A (zinc finger protein 37A)	0.119
21	ARHGDIA (Rho GDP dissociation inhibitor alpha)	0.0907
22	CD2AP (CD2 associated protein)	0.143
23	SF3B5 (splicing factor 3b subunit 5)	0.0596
24	INSR (insulin receptor)	0.0814
25	BEND5 (BEN domain containing 5)	0.186
26	RAX (retina and anterior neural fold homeobox)	0.0637
27	RAX (retina and anterior neural fold homeobox)	0.0787
28	COG5 (component of oligomeric golgi complex 5)	0.152
29	GRPEL1 (GrpE like 1, mitochondrial)	0.131
30	SZRD1 (SUZ RNA binding domain containing 1)	0.0633
31	WNT8A (Wnt family member 8A)	0.147
32	OR4D1 (olfactory receptor family 4 subfamily D member 1)	0.168
33	ZC3HAV1 (zinc finger CCCH-type containing, antiviral 1)	0.0667
34	CCNT2 (cyclin T2)	0.0439
35	GALNT10 (polypeptide N-acetylgalactosaminyltransferase 10)	0.155
36	SLC25A28	0.135
37	CD226 (CD226 molecule)	0.124
38	MAP2K3 (mitogen-activated protein kinase kinase 3)	0.113
39	THRSP (thyroid hormone responsive)	0.0214
40	WNT4 (Wnt family member 4)	0.122
41	UROS (uroporphyrinogen III synthase)	0.0548
42	BICD2 (BICD cargo adaptor 2)	0.114
43	TRIM3 (tripartite motif containing 3)	0.113
44	AP3S1 (adaptor related protein complex 3 subunit sigma 1)	0.0738
45	SPIRE1 (spire type actin nucleation factor 1)	0.187
46	OR2C3 (olfactory receptor family 2 subfamily C member 3)	0.0948
47	SNAP23 (synaptosome associated protein 23)	0.301
48	PARP6 (poly(ADP-ribose) polymerase family member 6)	0.0734
49	ACBD6 (acyl-CoA binding domain containing 6)	0.116
50	C5AR2 (complement C5a receptor 2)	0.0798
